## Cell number after 72 h of treatment

Compounds and concentrations:
PF-562271, 400 nM: CN(c1ncccc1CNc1nc(Nc2ccc3c(c2)CC(=O)N3)ncc1C(F)(F)F)S(C)(=O)=O
lapatinib, 4000 nM: CS(=O)(=O)CCNCc1ccc(-c2ccc3ncnc(Nc4ccc(OCc5cccc(F)c5)c(Cl)c4)c3c2)o1
dovitinib, 500 nM: CN1CCN(c2ccc3nc(-c4c(N)c5c(F)cccc5[nH]c4=O)[nH]c3c2)CC1
perifosine, 2000 nM: CCCCCCCCCCCCCCCCCCOP(=O)([O-])OC1CC[N+](C)(C)CC1
SU6656, 2000 nM: CN(C)S(=O)(=O)c1ccc2c(c1)/C(=C/c1cc3c([nH]1)CCCC3)C(=O)N2
ZM336372, 10000 nM: Cc1ccc(NC(=O)c2cccc(N(C)C)c2)cc1NC(=O)c1ccc(O)cc1
SNS-032, 50 nM: CC(C)(C)c1cnc(CSc2cnc(NC(=O)C3CCNCC3)s2)o1
MK-2206, 2000 nM: NC1(c2ccc(-c3nc4ccn5c(=O)[nH]nc5c4cc3-c3ccccc3)cc2)CCC1
TCS401, 8330 nM: O=C(O)C(=O)Nc1sc2c(c1C(=O)O)CCNC2
GW0742, 10000 nM: Cc1cc(SCc2sc(-c3ccc(C(F)(F)F)c(F)c3)nc2C)ccc1OCC(=O)O
JZL184, 5000 nM: O=C(Oc1ccc([N+](=O)[O-])cc1)N1CCC(C(O)(c2ccc3c(c2)OCO3)c2ccc3c(c2)OCO3)CC1
enzastaurin, 4000 nM: Cn1cc(C2=C(c3cn(C4CCN(Cc5ccccn5)CC4)c4ccccc34)C(=O)NC2=O)c2ccccc21
darinaparsin, 2000 nM: C[As](C)SC[C@H](NC(=O)CC[C@H](N)C(=O)O)C(=O)NCC(=O)O

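Human melanoma cell lines in 1,536-well plates were treated with a pair of drugs for 72 h, then fixed, stained and imaged. Each value is the count of nuclei relative to DMSO-treated wells, in %, so that 100 equals the control. Every drug was used at one fixed concentration, the higher of two screened. The file gives one value for each pair and line, without errors, so small differences may be noise.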 Only some of the drugs and lines screened are listed, without regard to their results.

With JZL184 + perifosine the screen read WM3619: 140; COLO 800: 91.1; WM451Lu: 101; COLO 792: 136; C32: 106; COLO 829: 101. With MK-2206 + JZL184 the screen read WM3619: 104; COLO 800: 70.6; WM451Lu: 111; COLO 792: 52.5; C32: 90.4; COLO 829: 77.8. TCS401 + JZL184 gave WM3619: 139; COLO 800: 153; WM451Lu: 83.7; COLO 792: 100; C32: 106; COLO 829: 100. enzastaurin + TCS401 gave WM3619: 93.1; COLO 800: 85.5; WM451Lu: 85.8; COLO 792: 100; C32: 108; COLO 829: 100. With MK-2206 + PF-562271 the screen read WM3619: 68.9; COLO 800: 89.1; WM451Lu: 79.1; COLO 792: 53.1; C32: 72.5; COLO 829: 51.1.

enzastaurin + SU6656 gave WM3619: 75.7; COLO 800: 42.4; WM451Lu: 58.0; COLO 792: 67.0; C32: 86.5; COLO 829: 87.2. For GW0742 + perifosine the values were WM3619: 75.0; COLO 800: 85.6; WM451Lu: 94.3; COLO 792: 99.1; C32: 85.2; COLO 829: 97.6. Results for perifosine + enzastaurin are WM3619: 96.6; COLO 800: 104; WM451Lu: 92.1; COLO 792: 89.8; C32: 104; COLO 829: 125. With MK-2206 + SNS-032 the screen read WM3619: 63.3; COLO 800: 62.6; WM451Lu: 72.0; COLO 792: 52.6; C32: 78.2; COLO 829: 95.5. With SNS-032 + lapatinib the screen read WM3619: 68.7; COLO 800: 58.9; WM451Lu: 75.9; COLO 792: 65.7; C32: 67.8; COLO 829: 84.2.

Results for GW0742 + darinaparsin are WM3619: 119; COLO 800: 83.6; WM451Lu: 73.7; COLO 792: 114; C32: 96.4; COLO 829: 114. For ZM336372 + dovitinib the values were WM3619: 46.8; COLO 800: 42.8; WM451Lu: 63.8; COLO 792: 59.3; C32: 66.0; COLO 829: 59.5. Results for JZL184 + ZM336372 are WM3619: 84.7; COLO 800: 82.3; WM451Lu: 120; COLO 792: 91.0; C32: 96.0; COLO 829: 136. SU6656 + ZM336372 gave WM3619: 69.6; COLO 800: 49.6; WM451Lu: 78.4; COLO 792: 51.1; C32: 86.9; COLO 829: 74.5. Results for MK-2206 + dovitinib are WM3619: 90.2; COLO 800: 49.8; WM451Lu: 74.5; COLO 792: 23.1; C32: 75.0; COLO 829: 58.7.

enzastaurin + dovitinib gave WM3619: 73.2; COLO 800: 54.7; WM451Lu: 91.2; COLO 792: 48.6; C32: 80.9; COLO 829: 69.6. With enzastaurin + MK-2206 the screen read WM3619: 109; COLO 800: 84.4; WM451Lu: 108; COLO 792: 68.7; C32: 81.2; COLO 829: 65.9. For darinaparsin + perifosine the values were WM3619: 105; COLO 800: 78.1; WM451Lu: 78.4; COLO 792: 76.1; C32: 90.5; COLO 829: 89.9.

For reference, 2 entries once more:

| Pair | WM3619 | COLO 800 | WM451Lu | COLO 792 | C32 | COLO 829 |
|---|---|---|---|---|---|---|
| SU6656 + ZM336372 | 69.6 | 49.6 | 78.4 | 51.1 | 86.9 | 74.5 |
| enzastaurin + TCS401 | 93.1 | 85.5 | 85.8 | 100 | 108 | 100 |

Data from the primary screen of doi:10.1371/journal.pone.0140310, rounded.